Laboratory results: paper PMC5398542
No constants are given. Whether binding was seen depends on the method and setting. In cells and extracts the contact can be indirect. Some results given as binding are weak or reduced against the parent protein; the word gives no strength.

Sequences of proteins named here, by UniProt entry; tags and fusion partners are left off.
UniProt O89090: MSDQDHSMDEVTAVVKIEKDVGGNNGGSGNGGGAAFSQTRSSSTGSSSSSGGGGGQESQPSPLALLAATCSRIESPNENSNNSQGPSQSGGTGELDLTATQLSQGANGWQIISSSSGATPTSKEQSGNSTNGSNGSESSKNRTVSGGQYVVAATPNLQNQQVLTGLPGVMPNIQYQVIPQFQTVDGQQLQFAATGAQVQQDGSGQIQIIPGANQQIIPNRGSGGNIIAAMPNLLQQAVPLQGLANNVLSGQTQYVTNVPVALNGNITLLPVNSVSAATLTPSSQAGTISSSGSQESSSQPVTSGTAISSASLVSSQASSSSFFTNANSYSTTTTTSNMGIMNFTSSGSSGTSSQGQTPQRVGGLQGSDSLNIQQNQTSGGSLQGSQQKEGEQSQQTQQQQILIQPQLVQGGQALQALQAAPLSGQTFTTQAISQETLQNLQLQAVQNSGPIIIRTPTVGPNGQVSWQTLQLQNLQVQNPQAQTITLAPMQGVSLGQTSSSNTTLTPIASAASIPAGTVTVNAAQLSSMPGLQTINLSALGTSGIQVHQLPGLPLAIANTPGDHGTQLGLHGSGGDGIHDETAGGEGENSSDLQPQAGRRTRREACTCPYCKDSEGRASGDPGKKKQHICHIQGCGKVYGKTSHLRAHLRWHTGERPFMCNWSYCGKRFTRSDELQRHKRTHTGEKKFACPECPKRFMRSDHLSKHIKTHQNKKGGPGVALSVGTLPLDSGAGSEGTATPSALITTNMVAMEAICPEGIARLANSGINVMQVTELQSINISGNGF
UniProt Q62432: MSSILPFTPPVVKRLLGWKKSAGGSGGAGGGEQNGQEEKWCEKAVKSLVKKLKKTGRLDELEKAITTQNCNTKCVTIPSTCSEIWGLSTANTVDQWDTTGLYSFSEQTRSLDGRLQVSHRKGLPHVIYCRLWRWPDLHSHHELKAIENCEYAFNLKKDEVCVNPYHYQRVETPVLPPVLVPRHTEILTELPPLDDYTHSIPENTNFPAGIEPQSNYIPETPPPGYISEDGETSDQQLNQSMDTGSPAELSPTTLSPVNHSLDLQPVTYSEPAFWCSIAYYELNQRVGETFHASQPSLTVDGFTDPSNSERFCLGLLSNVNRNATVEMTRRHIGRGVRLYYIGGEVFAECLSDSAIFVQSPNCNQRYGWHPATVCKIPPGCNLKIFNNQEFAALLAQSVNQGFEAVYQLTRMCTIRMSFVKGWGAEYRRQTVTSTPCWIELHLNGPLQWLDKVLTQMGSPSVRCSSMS

Tests used:
[1] = biological target: SP1 (mouse (endogenous in tsA58-AVM)) (UniProt O89090); assay: co-IP; tsA58-AVM cells under the restrictive condition treated with 5 ng/ml TGFβ1 for 30 minutes; lysate (50mM Tris-HCl pH 7.4, 0.1% Triton, 0.1% NP40, 0.1% Tween-20, 5mM EDTA, 10% glycerol) incubated with anti-SP1 antibody overnight at 4°C, Protein A/G beads; Western for SP1 and SMAD2
[2] = biological target: SP1 (mouse (endogenous in tsA58-AVM)) (UniProt O89090); assay: condition: only cells treated with BSA, without TGFβ1; co-IP; as a1, but cells treated with BSA instead of TGFβ1 for 30 minutes; IP with anti-SP1 antibody, Western for SP1 and SMAD2

With SMAD2 (from UniProt Q62432 1-467) the binding [1] was “binds” and the binding [2] was “no binding”.
